Data as given in the supplement of paper PMC3334620.
In all, about 33,000 sequences were measured (“E-score (-0.5 to 0.5)”: median about -0.0059, highest 2% from about 0.26 on). The list shows a part of the results.

These sequences were tested against T1, Cin5 (UniProt P40917) (assay: PBM E-score (8-mer binding enrichment) (E-score (-0.5 to 0.5)); higher = stronger / more preferred TF binding). Conditions: protein concentration: 100 nM; construct: GST-full length.
T1 sequence: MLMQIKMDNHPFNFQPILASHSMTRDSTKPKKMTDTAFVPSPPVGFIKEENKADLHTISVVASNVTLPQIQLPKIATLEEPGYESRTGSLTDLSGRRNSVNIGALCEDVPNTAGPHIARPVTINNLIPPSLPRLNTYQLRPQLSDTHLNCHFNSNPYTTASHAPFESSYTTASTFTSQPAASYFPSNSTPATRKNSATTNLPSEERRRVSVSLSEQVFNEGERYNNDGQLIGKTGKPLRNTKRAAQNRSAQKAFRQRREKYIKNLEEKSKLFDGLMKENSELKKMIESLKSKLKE
Method in brief: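 Masliner-normalised scans of fluorescent anti-GST signal were the basis for scoring. That signal came from GST-tagged yeast transcription factors applied at about 100-200 nM to double-stranded universal all-10-mer Agilent arrays on fresh or once-stripped slides. Each ungapped eight-base word, pooled with its reverse complement, received an E-score from the Universal PBM Analysis Suite.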

Sequence | PBM E-score
GGCACACA | -0.0762
CGTGTTAA | 0.0187
GCTTTCAA | 0.0189
CGTGCCAC | -0.275
CGACAGAA | 0.224
GAGTCTAA | -0.138
ACAAAGGG | -0.157
CGGCTACG | -0.109
AGAGAACG | 0.0141
ATGTTTAA | -0.0454
AGAAGTCA | 0.0776
CTCCTGCA | -0.194
AGGCGCGC | 0.0598
ATACTGTC | 0.208
AAGGGTTA | -0.137
ATTTTGCG | 0.207
CCGTCGAG | 0.0466
GCGCCCCC | -0.264
AAATAATT | 0.301
AATGAACC | 0.0103
ACCACCGT | -0.0691
AATATTCC | 0.289

A few values from above:
Value of CGTGCCAC under PBM E-score: -0.275
Value of GGCACACA under PBM E-score: -0.0762

Going on with the list.

Sequence | PBM E-score
ACGGGGGG | -0.419
AGCCTCAC | -0.0856
CCGAATGA | -0.0132
CGGCGCAC | -0.0276
AGTAAAAA | 0.169
GCTCTGTA | -0.00185
AGTAGGGA | -0.0905
CTACGCTC | -0.1
ATCTCCTC | -0.0974
CGTTTGAA | 0.0201
CGTACGAG | -0.102
GCGTGAAC | -0.122
AAGGTGGC | -0.0601
CTATGAAG | -0.0355
ATGCGCAT | 0.332
AATAGTAC | 0.05
CGATGAGC | -0.0198
ATCGGGCG | -0.0959
CCGCAATA | 0.173
CAACAAAG | 0.15
GACGCCGC | -0.0694
ACCCGGCA | -0.174

Sequence | PBM E-score
ACAGTACG | 0.0139
GATACGAA | 0.133
ATACGTTC | -0.0798
CAAATCGA | 0.112
GGTGCTTA | 0.0985
ACTCTATC | 0.0619
GAGGACTC | -0.303
CCGTTTGC | -0.0266
AACTCCTA | -0.00624
AGATATTG | 0.129
TATAAGCA | 0.256
GTACCTGA | -0.0233
AAGCACTG | 0.0871
CAAGGCAC | -0.105
GTAGTTCA | -0.0154
CCCCGGGC | -0.282
CTGTGGAC | -0.0624
ATGGAGCC | -0.232
TAATGTGA | 0.292
AGTGGGGG | -0.463
AGAAGTTG | -0.193
AATATGCT | 0.145

Sequence | PBM E-score
ACGAATCA | 0.132
CGGCCATC | -0.3
CAATCCTC | -0.129
TGACGCAA | 0.0669
AACTGCAT | 0.22
CACCGGCG | -0.0585
AATACTGT | 0.258
AACCTGAT | 0.0724
CCAGCTTA | 0.182
AATATAAG | 0.276
GGCAGAGA | -0.0513
GGATCGAC | -0.0684
ACCGTACG | -0.192
ACAACCCT | -0.0604
ATTTGAAA | 0.172
ACATCAAA | 0.178
CCAAAGGA | -0.0559
AGAGATGC | -0.0523
ATGTCCAG | -0.0453
ATCCGGAT | 0.259
